In PubChem BioAssay AID1347075 (National Center for Advancing Translational Sciences (NCATS), 2019):
The campaign covered roughly 400,000 compounds. About 5,500 (1.4%) were called active. The inconclusive results got no clear call from the source; some entries with a clear call stand among them for comparison. Calls come from the whole dose curve; as a rule, active = well fitted cell-killing curve with a large enough effect; inconclusive = small, poorly fitted or top-dose-only effect, or effect the other way; inactive = flat fitted curve, though single readings scatter. A potency beside an inconclusive call is a rough fit, not a confirmed value.

Test: qHTS assay for MDR1-selective chemotherapeutics: Primary screen using the parental adenocarcinoma cell KB-3-1; note: nearly all actives have a fitted effect of over 60% in size
Settings: KB-3-1 viability, CellTiter-Glo ATP luminescence, 72 h; activity change, negative = cytotoxic: at 46.1 µM (top of the series)
Method in brief: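 Viability of parental KB-3-1 cells, measured by CellTiter-Glo luminescence, followed a 72 h incubation at 37 °C with pinned compounds in phenol-red-free DMEM containing 10% FBS.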
% is set by controls: 0 for no effect and ±100 for the full control effect; potency is the fitted concentration of half-maximal effect.

| Structure (SMILES) | Potency | activity change, negative = cytotoxic |
| --- | --- | --- |
| c1cnn(-c2nc(N3CCOCC3)nc(N3CCOCC3)n2)c1 | inconclusive: 35.5 µM [cytotoxic, single point] |  |
| O=C(/C=C\c1cn(-c2ccccc2)nc1-c1ccccc1)Nc1nccs1 | inconclusive: 25.9 µM [cytotoxic, single point] |  |
| COc1cccc(N(C(=O)CS(=O)CC(=O)Nc2ccc(F)cc2)C(C(=O)NC2CCCCC2)c2cccs2)c1 (centres undefined) | inconclusive: 20.6 µM [cytotoxic, single point] |  |
| O=C(Nc1ccc2c(c1)ncn2C1CCCCC1)c1ccco1 | inconclusive: 25.9 µM [rising, partial curve, poor fit] |  |
| COCCn1c(SCC(=O)Nc2ccc(S(=O)(=O)N(C)C)cc2)nc2ccccc21 | inactive |  |
| CCc1ccccc1NC(=O)Nc1cc(C(=O)NCc2ccc(OC)cc2)ccc1N1CCCC1 | inactive |  |
| Cc1ccccc1OCC(=O)N(CC(C)C)c1c(N)n(CC(C)C)c(=O)[nH]c1=O |  | inconclusive: 7.91% |
| COc1ccc(NC(=O)COC(=O)CNS(=O)(=O)c2ccc(F)c(F)c2F)cc1OC | inactive |  |
| CSc1nc(N2CCOCC2)c2c(c1C#N)CC(C)(C)OC2 | inconclusive: 13 µM [rising, partial curve] |  |
| CC1CCN(Cc2c(C(=O)N/N=C/c3cccc(C(F)(F)F)c3)nnn2-c2nonc2N)CC1 | inactive |  |
| c1c2c(cc3sc(N4CCCCC4)nc13)OCO2 | active: 9.2 µM |  |
| Cc1c(C(=O)O)sc2nc(C)n(C)c(=O)c12 | inconclusive: 0.184 µM [rising, full curve] |  |
| CC1=C2CCCC[C@@]23C2C(=O)N(C)C(=O)[C@@H]2ON3OC1 (some centres undefined) | inactive |  |
| CC1=CC(C)(C)N2C(=O)C3(N=C(N)NC(Nc4ccccc4)=N3)c3cc(C)cc1c32 (centres undefined) | inconclusive: 29.1 µM [cytotoxic, single point] |  |
| O=C(c1ccc([N+](=O)[O-])o1)N1CCN(c2nc3ccc(F)cc3s2)CC1 | inconclusive: 29.1 µM [cytotoxic, single point] |  |
| C[C@]12C=CC(=O)C=C1CC[C@@H]1C2C(O)C[C@@]2(C)C1CC[C@]2(O)C(=O)COC(=O)CCC(=O)NC(CC(=O)O)C(=O)O (some centres undefined) | inconclusive: 0.0461 µM [rising, full curve] |  |
| CC1=NOC(=O)/C1=C\c1ccc(-c2cc(Cl)ccc2Cl)o1 | inactive |  |
| CCN(CC)c1cc(C)c2cc(NC(=O)c3ccc(Br)o3)ccc2n1 | inconclusive: 25.9 µM [cytotoxic, single point] |  |
| COc1cccc(N2CCN(c3c4c(nc5ncnn35)CCC4)CC2)c1 | active: 23.1 µM |  |

Fetched by structure from the list above (2):

| Structure (SMILES) | Potency | activity change, negative = cytotoxic |
| --- | --- | --- |
| c1c2c(cc3sc(N4CCCCC4)nc13)OCO2 | active: 9.2 µM |  |
| CCc1ccccc1NC(=O)Nc1cc(C(=O)NCc2ccc(OC)cc2)ccc1N1CCCC1 | inactive |  |
